These are yes or no findings as the source states them, for the method shown.

Experiment [1] addresses T1, acyl carrier protein (ACP), P0A6A8.
T1 chain: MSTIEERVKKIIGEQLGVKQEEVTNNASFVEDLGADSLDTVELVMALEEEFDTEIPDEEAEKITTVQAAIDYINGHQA
The experiment is described as follows: AUC; sedimentation analysis (methods: sedimentation velocity, 50,000 rpm, interference optics), 0.02 M Tris pH 7.5, 0.5 M NaCl, 20 °C, no reducing agents; both purified. As to conditions: remark: other sources report otherwise.

The target in experiment [2] is MadA^N, amino-terminal GNAT domain of E. coli MadA (E. coli) (UniProt P0ADQ2). The experiment is described as follows: SEC; gel filtration chromatography of the purified recombinant protein; both purified. For orientation: SEC sorts molecules by how far they enter the pores of the column.
For experiment [3] the target is unchanged. The experiment in a line: AUC; sedimentation analysis (methods: sedimentation velocity, 50,000 rpm, interference optics), 0.02 M Tris pH 7.5, 0.5 M NaCl, 20 °C, no reducing agents; both purified.

B1: acyl carrier protein (ACP), P0A6A8 1-78 (protein)
chain: MSTIEERVKKIIGEQLGVKQEEVTNNASFVEDLGADSLDTVELVMALEEEFDTEIPDEEAEKITTVQAAIDYINGHQA
As for B1, the binding result in experiment [1] is on record as “no binding”.

B2: MadA^N, amino-terminal GNAT domain of E. coli MadA (domain or fragment, UniProt P0ADQ2 1-161)
chain: MSQLPGLSRETRESIAMYHLRVPQTEEELERYYQFRWEMLRKPLHQPKGSERDAWDAMAHHQMVVDEQGNLVAVGRLYINADNEASIRFMAVHPDVQDKGLGTLMAMTLESVARQEGVKRVTCSAREDAVEFFAKLGFVNQGEITTPTTTPIRHFLMIKPV
In the case of B2, the binding result in experiment [2] and in experiment [3] was “no binding” throughout.
